Source: publication PMC11574364
Construct, isoform or probe ends are uncertain for at least one entry. For some assays here: Tags and fusion partners may be left off the protein sequences shown.

Protein sequences, listed by entry. Tags and fused reporters are not part of them. Lines headed by an entry give the natural chain unless they say otherwise; changes in a name come on top.
UniProt Q8NEX6: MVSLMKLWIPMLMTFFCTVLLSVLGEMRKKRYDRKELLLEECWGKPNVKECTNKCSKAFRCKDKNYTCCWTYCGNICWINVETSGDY
UniProt Q9NZ45: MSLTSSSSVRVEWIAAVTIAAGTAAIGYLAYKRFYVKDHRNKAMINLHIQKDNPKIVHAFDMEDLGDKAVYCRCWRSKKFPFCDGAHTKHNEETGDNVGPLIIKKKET
UniProt Q9NRW1: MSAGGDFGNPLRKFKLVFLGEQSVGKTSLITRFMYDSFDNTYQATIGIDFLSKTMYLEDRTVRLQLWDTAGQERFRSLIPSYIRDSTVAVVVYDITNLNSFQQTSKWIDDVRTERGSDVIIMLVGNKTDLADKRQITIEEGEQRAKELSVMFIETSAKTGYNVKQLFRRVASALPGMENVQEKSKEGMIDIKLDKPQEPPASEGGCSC
UniProt Q96NC0: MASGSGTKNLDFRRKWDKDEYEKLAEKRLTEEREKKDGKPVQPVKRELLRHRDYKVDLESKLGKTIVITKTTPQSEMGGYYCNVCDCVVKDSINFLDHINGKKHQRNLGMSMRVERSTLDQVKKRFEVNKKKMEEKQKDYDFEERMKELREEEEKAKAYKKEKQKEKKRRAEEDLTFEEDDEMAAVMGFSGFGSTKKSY

Legend:
Test in all cases: human ORF protein microarray
[1] = molecular target: T1, TMEM109 (Homo sapiens) (UniProt Q9BVC6); details: 5' phosphate; Domain array: 20 mM Tris-HCl pH 7.4, 200 mM KCl, 0.2 mM EDTA, 0.05% NP40, 2 ug/ul heparin, overnight 4 C. ORF array: PBS pH 7.0 with RNase inhibitor, 100 ng RNA, 1 h.; recombinant protein; protein details: N-terminal GST-6xHis; label: internal DY647 at G18; letters put together from the description
T1 sequence (looked up, limits assumed): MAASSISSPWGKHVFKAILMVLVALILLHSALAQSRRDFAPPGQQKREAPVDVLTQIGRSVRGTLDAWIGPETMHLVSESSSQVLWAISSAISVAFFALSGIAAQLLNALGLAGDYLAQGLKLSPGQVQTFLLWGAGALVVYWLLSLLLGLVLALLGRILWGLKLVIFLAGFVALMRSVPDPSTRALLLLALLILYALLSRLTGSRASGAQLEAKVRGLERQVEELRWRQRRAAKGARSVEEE

[2] = molecular target: T2, UNC45A (Homo sapiens) (UniProt Q9H3U1); details: 5' phosphate; Domain array: 20 mM Tris-HCl pH 7.4, 200 mM KCl, 0.2 mM EDTA, 0.05% NP40, 2 ug/ul heparin, overnight 4 C. ORF array: PBS pH 7.0 with RNase inhibitor, 100 ng RNA, 1 h.; recombinant protein; protein details: N-terminal GST-6xHis; label: internal DY647 at G18; letters put together from the description
T2 sequence (looked up, limits assumed): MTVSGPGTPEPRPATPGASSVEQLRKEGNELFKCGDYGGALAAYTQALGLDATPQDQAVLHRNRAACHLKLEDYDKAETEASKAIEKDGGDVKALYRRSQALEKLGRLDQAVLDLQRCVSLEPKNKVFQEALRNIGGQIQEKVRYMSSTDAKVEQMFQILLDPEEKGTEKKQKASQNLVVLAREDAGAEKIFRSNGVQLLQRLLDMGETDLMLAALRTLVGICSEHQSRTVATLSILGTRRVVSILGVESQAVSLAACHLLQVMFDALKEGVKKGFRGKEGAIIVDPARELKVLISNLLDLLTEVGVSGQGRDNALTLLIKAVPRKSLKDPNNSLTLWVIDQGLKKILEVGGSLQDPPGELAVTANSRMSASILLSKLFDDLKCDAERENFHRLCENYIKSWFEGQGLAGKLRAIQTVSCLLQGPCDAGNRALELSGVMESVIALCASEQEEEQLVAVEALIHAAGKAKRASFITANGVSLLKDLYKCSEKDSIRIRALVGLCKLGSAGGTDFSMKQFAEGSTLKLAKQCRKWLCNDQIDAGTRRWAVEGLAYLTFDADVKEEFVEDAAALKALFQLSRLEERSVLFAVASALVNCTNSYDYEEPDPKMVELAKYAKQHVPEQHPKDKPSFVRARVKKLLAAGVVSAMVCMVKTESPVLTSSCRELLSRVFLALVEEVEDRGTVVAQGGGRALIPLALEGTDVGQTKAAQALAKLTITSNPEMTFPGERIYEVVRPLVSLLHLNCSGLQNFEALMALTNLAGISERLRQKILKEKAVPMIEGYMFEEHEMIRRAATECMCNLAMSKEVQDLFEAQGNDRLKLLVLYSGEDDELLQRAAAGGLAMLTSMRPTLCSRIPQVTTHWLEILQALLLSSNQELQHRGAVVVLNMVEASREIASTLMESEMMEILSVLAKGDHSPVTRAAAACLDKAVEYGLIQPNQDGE

[3] = molecular target: T3, SFRS16 (Homo sapiens) (UniProt Q8N2M8); details: 5' phosphate; Domain array: 20 mM Tris-HCl pH 7.4, 200 mM KCl, 0.2 mM EDTA, 0.05% NP40, 2 ug/ul heparin, overnight 4 C. ORF array: PBS pH 7.0 with RNase inhibitor, 100 ng RNA, 1 h.; recombinant protein; protein details: N-terminal GST-6xHis; label: internal DY647 at G18; letters put together from the description
T3 sequence (looked up, limits assumed): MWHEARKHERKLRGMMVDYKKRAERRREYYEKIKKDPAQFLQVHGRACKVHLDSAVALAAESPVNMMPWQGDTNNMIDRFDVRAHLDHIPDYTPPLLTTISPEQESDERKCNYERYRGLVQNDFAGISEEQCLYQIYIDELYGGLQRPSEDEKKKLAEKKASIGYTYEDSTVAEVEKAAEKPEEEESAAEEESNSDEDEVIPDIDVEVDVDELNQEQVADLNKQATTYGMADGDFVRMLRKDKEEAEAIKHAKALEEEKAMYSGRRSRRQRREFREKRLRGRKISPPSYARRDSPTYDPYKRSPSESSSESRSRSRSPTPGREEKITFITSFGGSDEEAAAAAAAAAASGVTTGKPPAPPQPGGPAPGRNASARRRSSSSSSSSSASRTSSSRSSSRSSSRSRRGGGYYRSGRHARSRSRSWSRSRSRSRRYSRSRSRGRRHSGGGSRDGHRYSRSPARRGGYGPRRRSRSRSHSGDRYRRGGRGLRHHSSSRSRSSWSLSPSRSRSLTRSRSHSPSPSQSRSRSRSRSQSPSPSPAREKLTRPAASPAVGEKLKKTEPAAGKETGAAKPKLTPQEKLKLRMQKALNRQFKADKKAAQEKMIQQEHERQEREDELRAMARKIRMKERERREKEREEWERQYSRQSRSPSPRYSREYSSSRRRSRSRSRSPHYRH

[4] = molecular target: WFDC11 (Homo sapiens) (UniProt Q8NEX6); details: 5' phosphate; Domain array: 20 mM Tris-HCl pH 7.4, 200 mM KCl, 0.2 mM EDTA, 0.05% NP40, 2 ug/ul heparin, overnight 4 C. ORF array: PBS pH 7.0 with RNase inhibitor, 100 ng RNA, 1 h.; recombinant protein; protein details: N-terminal GST-6xHis; label: internal DY647 at G18; letters put together from the description
[5] = molecular target: ZCD1 (Homo sapiens) (UniProt Q9NZ45); details: 5' phosphate; Domain array: 20 mM Tris-HCl pH 7.4, 200 mM KCl, 0.2 mM EDTA, 0.05% NP40, 2 ug/ul heparin, overnight 4 C. ORF array: PBS pH 7.0 with RNase inhibitor, 100 ng RNA, 1 h.; recombinant protein; protein details: N-terminal GST-6xHis; label: internal DY647 at G18; letters put together from the description
[6] = molecular target: RAB6B (Homo sapiens) (UniProt Q9NRW1); details: 5' phosphate; amino-C6 U at position 18; Domain array: 20 mM Tris-HCl pH 7.4, 200 mM KCl, 0.2 mM EDTA, 0.05% NP40, 2 ug/ul heparin, overnight 4 C. ORF array: PBS pH 7.0 with RNase inhibitor, 100 ng RNA, 1 h.; recombinant protein; protein details: N-terminal GST-6xHis; label: internal Cy5 or DY647
[7] = molecular target: ZMAT2 (Homo sapiens) (UniProt Q96NC0); details: 5' phosphate; amino-C6 U at position 18; Domain array: 20 mM Tris-HCl pH 7.4, 200 mM KCl, 0.2 mM EDTA, 0.05% NP40, 2 ug/ul heparin, overnight 4 C. ORF array: PBS pH 7.0 with RNase inhibitor, 100 ng RNA, 1 h.; recombinant protein; protein details: N-terminal GST-6xHis; label: internal Cy5 or DY647
[8] = molecular target: T4, TXNL4A (Homo sapiens) (UniProt P83876); details: 5' phosphate; amino-C6 U at position 18; Domain array: 20 mM Tris-HCl pH 7.4, 200 mM KCl, 0.2 mM EDTA, 0.05% NP40, 2 ug/ul heparin, overnight 4 C. ORF array: PBS pH 7.0 with RNase inhibitor, 100 ng RNA, 1 h.; recombinant protein; protein details: N-terminal GST-6xHis; label: internal Cy5 or DY647
T4 sequence (looked up, limits assumed): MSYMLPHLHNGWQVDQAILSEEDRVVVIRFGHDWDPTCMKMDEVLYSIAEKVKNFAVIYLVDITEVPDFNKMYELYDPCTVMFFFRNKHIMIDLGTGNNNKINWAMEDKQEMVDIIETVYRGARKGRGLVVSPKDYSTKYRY

“CAGUGCAAUGAUGAAAGGGCAU [miR-130b (internal labeling)]”: binds [1].

“UAGCUUAUCAGACUGAUGUUGA [miR-21 (internal labeling)]”: binds [2]; binds [3]; binds [4]. “UAGCUUAUCAGACUGAUGUUGA [miR-21 (internal labeling)]”: binds [5].

“UGAGGUAGUAGGUUGUGUGGUU [let-7b (internal labeling)]”: binds [6]; binds [7]; binds [8].
